Assay results: patent publication US20060088847A1
These are yes or no findings as the source states them, for the method shown. For some assays here: In cells and extracts the contact can be indirect. Some binding calls cover weakened binding; strength is not graded here.

Protein sequences, listed by entry. Tags and fused reporters are not part of them. Lines headed by an entry give the natural chain unless they say otherwise; changes in a name come on top. Residues count along the entry.
UniProt Q8N726: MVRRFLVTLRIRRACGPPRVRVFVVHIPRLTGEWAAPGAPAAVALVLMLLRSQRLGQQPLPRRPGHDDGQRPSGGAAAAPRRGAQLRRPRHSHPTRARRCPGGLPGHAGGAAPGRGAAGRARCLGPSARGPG
GST-N-ARF, the N terminus of ARF protein (1-64): residues 1-64 of Q8N726
UniProt P06748: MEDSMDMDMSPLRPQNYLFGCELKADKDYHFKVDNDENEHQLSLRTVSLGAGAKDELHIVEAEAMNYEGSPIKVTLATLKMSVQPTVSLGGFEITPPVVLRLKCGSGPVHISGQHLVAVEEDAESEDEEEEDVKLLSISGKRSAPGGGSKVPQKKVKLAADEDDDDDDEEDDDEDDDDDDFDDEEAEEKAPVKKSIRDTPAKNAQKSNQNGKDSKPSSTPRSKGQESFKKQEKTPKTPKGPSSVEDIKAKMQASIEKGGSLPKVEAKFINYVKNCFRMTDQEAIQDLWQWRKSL

What was measured:
endogenous ARF (human) [1] = biological target: endogenous ARF (human) (UniProt Q8N726); experiment: co-immunoprecipitation with anti-ARF polyclonal antibody, Western blot
endogenous p53 (human) [2] = biological target: endogenous p53 (human) (UniProt P04637); experiment: co-immunoprecipitation with p53 monoclonal antibody DO-1, Western blot
endogenous p53 (human) [3] = biological target: endogenous p53 (human) (UniProt P04637); experiment: co-immunoprecipitation of endogenous proteins from U2OS cell extracts, Western blot
endogenous ARF (human) [4] = biological target: endogenous ARF (human) (UniProt Q8N726); experiment: co-immunoprecipitation of endogenous proteins from H1299 cell extracts, Western blot
[5] = biological target: HA-ARF-Flag, double-tagged human ARF protein containing a N-terminal HA- and C-terminal FLAG epitope (human) (UniProt Q8N726); experiment: tandem Flag/HA affinity purification from H1299 nuclear extract, SDS-PAGE, silver staining
FLAG-B23 [6] = biological target: FLAG-B23 (UniProt P06748); experiment: co-immunoprecipitation with M2 beads from 293 cells transfected with Flag-B23, Western blot
FLAG-B23 [7] = biological target: FLAG-B23 (UniProt P06748); experiment: immunoprecipitation with anti-FLAG M2 beads from FLAG-B23 cells, Western blot with anti-ARF-BP1 antibody
[8] = biological target: GST-N-ARF, the N terminus of ARF protein (1-64) (UniProt Q8N726); experiment: GST pull-down with 35S-labeled in vitro translated protein
GST-p53 protein = GST-p53 protein (UniProt P04637); experiment: as above
[9] = biological target: wild-type GST-ARF full-length protein (UniProt Q8N726); experiment: as above
[10] = biological target: endogenous ARF-BP1 (ARF-binding protein 1) (human) (UniProt Q7Z6Z7); experiment: co-immunoprecipitation with ARF-BP1-specific antibody, Western blot
[11] = biological target: endogenous ARF-BP1 (ARF-binding protein 1) (human) (UniProt Q7Z6Z7); experiment: co-immunoprecipitation of endogenous proteins from H1299 cell extracts, Western blot
[12] = biological target: endogenous ARF-BP1 (ARF-binding protein 1) (human) (UniProt Q7Z6Z7); experiment: co-immunoprecipitation with anti-ARF-BP1 specific antibody, Western blot
[13] = biological target: endogenous ARF-BP1 (ARF-binding protein 1) (human) (UniProt Q7Z6Z7); experiment: co-immunoprecipitation of endogenous proteins from U2OS cell extracts, Western blot

Measured: binding

endogenous ARF-BP1 (ARF-binding protein 1) (from UniProt Q7Z6Z7 1-4374) (enzyme)
binds: endogenous ARF (human) [1] | endogenous p53 (human) [2] | endogenous p53 (human) [3] | endogenous ARF (human) [4] | [5] | FLAG-B23 [6] | FLAG-B23 [7]

in vitro translated 35S-labeled ARF-BP1 (1015-4374) (from UniProt Q7Z6Z7 1015-4374) (enzyme)
binds: [8] | GST-p53 protein | [9]

endogenous ARF (from UniProt Q8N726 1-132)
binds: [10] | [11]

endogenous p53 (from UniProt P04637 1-393)
binds: [12] | [13]
